# Experimental data published in the supplement of paper PMC12067093, “Discovery and optimisation of a covalent ligand for TRIM25 and its application to targeted protein ubiquitination” (Chemical Science, 2025).
# Sequences of proteins named here, by UniProt entry; tags and fusion partners are left off. A change or cut given only in a name is not applied to a line headed by its entry.
# UniProt Q8N8R7: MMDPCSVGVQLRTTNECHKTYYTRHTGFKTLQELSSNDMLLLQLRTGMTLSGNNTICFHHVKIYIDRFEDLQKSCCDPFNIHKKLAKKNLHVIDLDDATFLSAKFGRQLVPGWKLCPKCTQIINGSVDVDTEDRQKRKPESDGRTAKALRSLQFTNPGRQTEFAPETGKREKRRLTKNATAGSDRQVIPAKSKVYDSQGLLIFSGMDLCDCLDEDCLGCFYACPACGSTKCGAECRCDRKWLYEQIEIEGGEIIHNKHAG
# UniProt Q92619: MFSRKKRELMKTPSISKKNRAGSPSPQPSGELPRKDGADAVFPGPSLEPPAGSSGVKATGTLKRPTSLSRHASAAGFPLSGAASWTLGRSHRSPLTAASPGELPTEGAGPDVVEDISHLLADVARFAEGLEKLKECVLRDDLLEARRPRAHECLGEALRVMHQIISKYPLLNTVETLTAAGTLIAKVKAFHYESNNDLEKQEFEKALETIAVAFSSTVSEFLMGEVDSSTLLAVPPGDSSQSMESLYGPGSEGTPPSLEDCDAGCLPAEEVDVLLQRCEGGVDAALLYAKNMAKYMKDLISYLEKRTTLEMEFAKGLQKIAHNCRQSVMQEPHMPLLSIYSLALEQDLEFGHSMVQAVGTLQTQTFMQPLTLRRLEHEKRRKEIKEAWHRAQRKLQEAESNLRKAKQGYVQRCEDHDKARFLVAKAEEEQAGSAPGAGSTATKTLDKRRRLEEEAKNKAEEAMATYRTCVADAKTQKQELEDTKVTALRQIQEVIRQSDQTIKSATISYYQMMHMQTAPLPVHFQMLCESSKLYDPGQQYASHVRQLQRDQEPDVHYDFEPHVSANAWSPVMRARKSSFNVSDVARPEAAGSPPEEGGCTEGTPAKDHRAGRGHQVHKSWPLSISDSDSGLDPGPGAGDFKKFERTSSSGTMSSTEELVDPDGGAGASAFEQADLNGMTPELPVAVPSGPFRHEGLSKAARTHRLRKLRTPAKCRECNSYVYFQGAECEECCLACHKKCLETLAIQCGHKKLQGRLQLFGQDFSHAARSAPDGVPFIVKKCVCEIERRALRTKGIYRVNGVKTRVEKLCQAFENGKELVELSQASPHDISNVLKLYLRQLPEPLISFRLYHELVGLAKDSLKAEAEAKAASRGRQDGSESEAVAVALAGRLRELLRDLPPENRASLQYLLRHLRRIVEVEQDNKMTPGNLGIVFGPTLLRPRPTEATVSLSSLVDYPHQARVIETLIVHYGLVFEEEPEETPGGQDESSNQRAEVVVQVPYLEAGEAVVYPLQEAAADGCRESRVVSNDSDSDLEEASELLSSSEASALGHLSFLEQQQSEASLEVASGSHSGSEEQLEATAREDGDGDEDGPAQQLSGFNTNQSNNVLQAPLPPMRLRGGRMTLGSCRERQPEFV
# UniProt Q9Y689: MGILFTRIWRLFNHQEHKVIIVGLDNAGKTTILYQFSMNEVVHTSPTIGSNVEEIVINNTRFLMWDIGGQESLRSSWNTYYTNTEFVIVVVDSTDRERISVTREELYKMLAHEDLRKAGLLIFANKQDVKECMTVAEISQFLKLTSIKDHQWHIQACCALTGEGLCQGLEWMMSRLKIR
# UniProt Q9HC16: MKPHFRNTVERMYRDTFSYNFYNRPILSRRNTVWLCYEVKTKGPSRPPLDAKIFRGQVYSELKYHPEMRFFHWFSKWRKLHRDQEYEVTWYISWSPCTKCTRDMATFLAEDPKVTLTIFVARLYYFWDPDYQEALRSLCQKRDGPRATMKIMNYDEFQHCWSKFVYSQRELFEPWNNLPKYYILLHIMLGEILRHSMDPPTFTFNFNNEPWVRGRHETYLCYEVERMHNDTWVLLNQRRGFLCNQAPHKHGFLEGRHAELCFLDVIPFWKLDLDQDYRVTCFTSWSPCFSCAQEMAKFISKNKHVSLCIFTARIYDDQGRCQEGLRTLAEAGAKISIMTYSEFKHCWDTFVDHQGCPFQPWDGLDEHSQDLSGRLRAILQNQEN
# UniProt Q8N392: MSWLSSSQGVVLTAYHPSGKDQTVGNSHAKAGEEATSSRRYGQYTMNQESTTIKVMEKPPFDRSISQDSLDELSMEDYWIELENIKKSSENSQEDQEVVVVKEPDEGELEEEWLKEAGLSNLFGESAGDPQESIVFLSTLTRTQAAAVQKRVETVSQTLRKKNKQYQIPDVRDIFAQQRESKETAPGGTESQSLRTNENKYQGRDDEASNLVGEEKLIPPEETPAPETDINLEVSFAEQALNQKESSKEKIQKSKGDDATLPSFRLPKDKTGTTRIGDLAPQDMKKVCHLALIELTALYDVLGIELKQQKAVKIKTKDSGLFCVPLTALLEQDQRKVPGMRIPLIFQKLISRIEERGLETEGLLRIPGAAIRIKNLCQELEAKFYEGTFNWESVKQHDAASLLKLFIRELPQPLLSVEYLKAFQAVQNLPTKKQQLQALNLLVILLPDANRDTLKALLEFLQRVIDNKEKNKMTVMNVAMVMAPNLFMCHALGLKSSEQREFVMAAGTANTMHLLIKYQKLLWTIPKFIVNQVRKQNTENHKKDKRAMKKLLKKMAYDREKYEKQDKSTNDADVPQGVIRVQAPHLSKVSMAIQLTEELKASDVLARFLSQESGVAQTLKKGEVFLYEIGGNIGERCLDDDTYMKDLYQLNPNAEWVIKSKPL
# UniProt Q9Y4X5: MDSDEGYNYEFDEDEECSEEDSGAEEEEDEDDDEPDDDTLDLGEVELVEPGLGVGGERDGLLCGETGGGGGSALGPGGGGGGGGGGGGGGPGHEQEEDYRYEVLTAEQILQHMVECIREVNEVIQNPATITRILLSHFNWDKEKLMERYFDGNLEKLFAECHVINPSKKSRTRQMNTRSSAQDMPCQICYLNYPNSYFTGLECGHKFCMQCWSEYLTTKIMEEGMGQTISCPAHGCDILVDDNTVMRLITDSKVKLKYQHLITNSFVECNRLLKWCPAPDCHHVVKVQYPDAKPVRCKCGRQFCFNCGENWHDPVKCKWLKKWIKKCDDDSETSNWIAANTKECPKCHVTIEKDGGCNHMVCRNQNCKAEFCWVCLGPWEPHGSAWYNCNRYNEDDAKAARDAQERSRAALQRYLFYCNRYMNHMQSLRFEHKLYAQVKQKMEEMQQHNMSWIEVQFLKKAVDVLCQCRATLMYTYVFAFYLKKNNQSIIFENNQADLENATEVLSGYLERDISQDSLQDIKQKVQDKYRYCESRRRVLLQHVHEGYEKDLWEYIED
# UniProt Q8IUR7, whole entry, looked up: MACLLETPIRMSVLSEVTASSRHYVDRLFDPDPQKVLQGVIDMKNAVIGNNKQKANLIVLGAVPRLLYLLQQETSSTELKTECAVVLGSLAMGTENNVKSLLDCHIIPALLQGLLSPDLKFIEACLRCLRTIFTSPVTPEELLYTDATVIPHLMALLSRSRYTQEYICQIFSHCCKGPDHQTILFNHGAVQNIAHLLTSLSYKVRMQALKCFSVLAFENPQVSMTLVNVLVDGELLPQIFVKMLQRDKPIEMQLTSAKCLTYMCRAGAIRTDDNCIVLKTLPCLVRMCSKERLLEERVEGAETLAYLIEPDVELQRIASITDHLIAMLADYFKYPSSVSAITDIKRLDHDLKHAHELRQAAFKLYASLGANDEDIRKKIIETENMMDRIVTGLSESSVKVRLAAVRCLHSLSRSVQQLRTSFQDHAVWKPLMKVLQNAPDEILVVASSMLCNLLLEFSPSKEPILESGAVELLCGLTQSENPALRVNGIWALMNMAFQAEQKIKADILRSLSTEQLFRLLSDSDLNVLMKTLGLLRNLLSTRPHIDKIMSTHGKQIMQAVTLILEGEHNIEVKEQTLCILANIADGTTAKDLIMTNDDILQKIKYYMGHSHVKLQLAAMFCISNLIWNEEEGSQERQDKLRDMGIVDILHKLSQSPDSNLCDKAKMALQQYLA
# UniProt Q92888: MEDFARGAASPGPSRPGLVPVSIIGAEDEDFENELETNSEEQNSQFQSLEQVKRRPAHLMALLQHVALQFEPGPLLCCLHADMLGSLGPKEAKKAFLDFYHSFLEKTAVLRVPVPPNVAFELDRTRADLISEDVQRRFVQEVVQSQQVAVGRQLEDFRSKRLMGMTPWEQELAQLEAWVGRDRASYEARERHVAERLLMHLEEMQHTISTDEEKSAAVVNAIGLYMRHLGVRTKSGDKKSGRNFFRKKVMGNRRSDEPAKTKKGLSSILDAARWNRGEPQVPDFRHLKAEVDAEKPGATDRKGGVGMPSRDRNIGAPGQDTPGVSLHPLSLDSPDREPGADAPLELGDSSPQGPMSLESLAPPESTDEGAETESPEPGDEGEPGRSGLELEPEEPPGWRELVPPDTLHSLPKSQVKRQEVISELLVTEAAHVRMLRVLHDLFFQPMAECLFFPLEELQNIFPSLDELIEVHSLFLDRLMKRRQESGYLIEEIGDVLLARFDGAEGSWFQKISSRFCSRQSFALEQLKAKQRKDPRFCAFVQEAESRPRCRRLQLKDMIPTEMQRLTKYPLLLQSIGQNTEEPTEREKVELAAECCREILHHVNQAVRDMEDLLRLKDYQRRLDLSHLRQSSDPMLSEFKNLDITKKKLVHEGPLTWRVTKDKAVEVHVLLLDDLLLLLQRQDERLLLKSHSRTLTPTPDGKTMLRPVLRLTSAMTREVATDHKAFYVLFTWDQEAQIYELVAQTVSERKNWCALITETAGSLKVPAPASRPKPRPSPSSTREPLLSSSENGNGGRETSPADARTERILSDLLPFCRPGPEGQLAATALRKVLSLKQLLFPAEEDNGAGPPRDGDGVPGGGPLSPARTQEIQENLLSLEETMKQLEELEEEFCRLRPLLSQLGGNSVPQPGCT
# UniProt P02749: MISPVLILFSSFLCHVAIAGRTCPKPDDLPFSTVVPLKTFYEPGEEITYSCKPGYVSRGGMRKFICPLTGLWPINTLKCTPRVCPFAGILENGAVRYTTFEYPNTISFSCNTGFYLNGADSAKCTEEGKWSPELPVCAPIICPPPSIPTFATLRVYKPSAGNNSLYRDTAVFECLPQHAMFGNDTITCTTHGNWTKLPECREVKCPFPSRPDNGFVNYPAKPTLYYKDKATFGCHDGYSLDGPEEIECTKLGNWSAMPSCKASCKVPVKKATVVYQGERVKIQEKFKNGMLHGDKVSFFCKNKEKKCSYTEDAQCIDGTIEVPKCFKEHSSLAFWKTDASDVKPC
# UniProt Q15052: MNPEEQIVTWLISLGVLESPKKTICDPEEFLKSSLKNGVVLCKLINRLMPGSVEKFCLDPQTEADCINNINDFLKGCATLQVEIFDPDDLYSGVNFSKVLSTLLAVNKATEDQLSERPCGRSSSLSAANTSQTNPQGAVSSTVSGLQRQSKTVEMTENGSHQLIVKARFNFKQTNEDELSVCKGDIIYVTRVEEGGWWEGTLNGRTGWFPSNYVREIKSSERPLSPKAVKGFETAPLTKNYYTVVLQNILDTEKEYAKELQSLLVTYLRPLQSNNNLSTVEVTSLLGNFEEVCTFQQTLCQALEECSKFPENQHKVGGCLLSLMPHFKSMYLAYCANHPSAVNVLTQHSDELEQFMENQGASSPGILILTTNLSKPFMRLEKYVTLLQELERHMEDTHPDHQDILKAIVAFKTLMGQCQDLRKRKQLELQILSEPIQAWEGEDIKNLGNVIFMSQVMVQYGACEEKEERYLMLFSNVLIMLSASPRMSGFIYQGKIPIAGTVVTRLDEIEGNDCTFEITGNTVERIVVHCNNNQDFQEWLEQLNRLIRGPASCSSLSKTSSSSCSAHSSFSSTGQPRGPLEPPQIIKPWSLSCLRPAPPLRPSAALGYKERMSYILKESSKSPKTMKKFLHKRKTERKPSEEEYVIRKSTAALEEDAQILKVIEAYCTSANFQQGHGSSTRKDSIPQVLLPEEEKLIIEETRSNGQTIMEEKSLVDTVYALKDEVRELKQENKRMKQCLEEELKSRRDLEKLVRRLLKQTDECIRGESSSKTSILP
# The other results are listed elsewhere or left out.
# Compound: CC1Cc2ccccc2N1C(=O)C1CCCN(C1)C(=O)CCl (mixture of isomers) [TRIM25 ligand 11 (diastereomer mixture)]
# Assay: probe-labelled cysteine peptide fold change vs DMSO (competition) (log2 fold change); higher = less target engagement (more negative = stronger competition)
# Settings: THP-1, incubation time: 4 h
# 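Note: competitive chemoproteomic profiling in live THP-1 cells with an iodoacetamide desthiobiotin (IA-DTB) probe, comparing probe-labelled peptide intensities in compound-treated cells against DMSO-treated controls.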
Target,probe-labelled cysteine peptide fold change (10 µM),probe-labelled cysteine peptide fold change (50 µM)
ARL14EP_Q8N8R7_17_TTNECHK (UniProt Q8N8R7),0.0006,0.0257
ARHGAP45_Q92619_324_IAHNCR (UniProt Q92619),0.0833,0.118
ARL5A_Q9Y689_132_ECMTVAEISQFLK (UniProt Q9Y689),0.142,0.173
APOBEC3G_Q9HC16_221_GRHETYLCYEVER (UniProt Q9HC16),0.137,-0.2
ARHGAP18_Q8N392_637_CLDDDTYMK (UniProt Q8N392),0.0299,-0.0653
ARIH1_Q9Y4X5_304_QFCFNCGENWHDPVK (UniProt Q9Y4X5),-0.0925,0.188
ARL2_P36404_153_SHHWCIQGCSAVTGENLLPGIDWLLDDISSR (UniProt P36404),0.298,0.494
ARMC8_Q8IUR7_3_ACLLETPIR (UniProt Q8IUR7),0.121,-0.179
ARHGEF1_Q92888_815_ILSDLLPFCRPGPEGQLAATALRK (UniProt Q92888),-0.326,-0.307
APOBEC3G_Q9HC16_243_GFLCNQAPHK (UniProt Q9HC16),0.0831,0.0911
ARHGEF2_Q92974_715_TFNGSIELCR (UniProt Q92974),-0.0939,-0.117
ARID4B_Q4LE39_107_SSLCLK (UniProt Q4LE39),-0.0353,0.0713
APOH_P02749_124_CTEEGK (UniProt P02749),0.632,0.551
ARHGEF6_Q15052_763_QTDECIR (UniProt Q15052),-0.00871,0.0709
ARHGEF1_Q92888_595_EKVELAAECCR (UniProt Q92888),-0.216,0.00529

# A run of entries of the results above, for reference:
Target,probe-labelled cysteine peptide fold change (10 µM),probe-labelled cysteine peptide fold change (50 µM)
ARL2_P36404_153_SHHWCIQGCSAVTGENLLPGIDWLLDDISSR (UniProt P36404),0.298,0.494
ARMC8_Q8IUR7_3_ACLLETPIR (UniProt Q8IUR7),0.121,-0.179
